Positions count from the first letter of the chain named. These are yes or no findings as the source states them, for the method shown.
B1: TP-3C3 Fab (Fab, V domains shown)
VH: QVQLQQSGPGLVKPSQTLSLTCAISGDSVSSNSAAWGWIRQSPGRGLEWLGVIYYRSKWYNDYAVSVKSRITINPDTSKNQFSLQLNSVTPEDTAVYYCARARAKKSGGFDYWGQGTLVTVSS
VL: DIQMTQSPSSLSASVGDRVTITCRASQSINPYLNWYQQKPGKAPKLLIYAASNLQSGVPSRFSGSGSGTDFTLTISSLQPEDFAVYYCQQLDNRSITFGQGTKVEIKR
B2: TP-3D3 Fab (Fab, V domains shown)
VH: QVQLVESGGGLVQPGGSLRLSCAASGFTFSSYASWVRQAPGKGLEWVSGISGDGSNTHYADSVKGRFTISRDNSKNTLYLQMNSLRAEDTAVYYCARYDNFYFDVWGQGTLVTVSS
VL: DIELTQPPSVSVAPGQTARISCSGDSLGSKFAHWYQQKPGQAPVLVIYDDSNRPSGIPERFSGSNSGNTATLTISGTQAEDEADYYCSTYTSRSHSYVFGGGTKLTVLG
B3: TP-3E1 Fab (Fab, V domains shown)
VH: QVQLVESGGGLVQPGGSLRLSCAASGFTFSNYAMTWVRQAPGKGLEWVSVISSVGSNTYYADSVKGRFTISRDNSKNTLYLQMNSLRAEDTAVYYCARPTKAGRTWWWGPYMDVWGQGTLVTVSS
VL: DIELTQPPSVSVAPGQTARISCSGDNIGSYYAYWYQQKPGQAPVLVIYDDSNRPSGIPERFSGSNSGNTATLTISGTQAEDEADYYCQSYDSTGLLVFGGGTKLTVLG
B4: TP-3F1 Fab (Fab, V domains shown)
VH: QVQLVQSGAEVKKPGESLKISCKGSGYSFTDYWIGWVRQMPGKGLEWMGIIQPSDSDTNYSPSFQGQVTISADKSISTAYLQWSSLKASDTAMYYCARFMWWGKYDSGFDVWGQGTLVTVSS
VL: DIELTQPPSVSVAPGQTARISCSGDNIGSYFASWYQQKPGQAPVLVIYDDSNRPSGIPERFSGSNSGNTATLTISGTQAEDEADYYCEGSNVFGGGTKLTVLG
B5: TP-3F2 Fab (Fab, V domains shown)
VH: QVQLVESGGGLVQPGGSLRLSCAASGFTFSSYSMHWVRQAPGKGLEWVSGISYSSSFTYYADSVKGRFTISRDNSKNTLYLQMNSLRAEDTAVYYCARALGGGVDYWGQGTLVTVSS
VL: DIELTQPPSVSVAPGQTARISCSGDNLPSKSVYWYQQKPGQAPVLVIYGDNNRPSGIPERFSGSNSGNTATLTISGTQAEDEADYYCQSWTSRPMVVFGGGTKLTVLG
B6: TP-3G1 Fab (Fab, V domains shown)
VH: QVQLQQSGPGLVKPSQTLSLTCAISGDSVSSNSGGWGWIRQSPGRGLEWLGLIYYRSKWYNAYAVSVKSRITINPDTSKNQFSLQLNSVTPEDTAVYYCARYLGSNFYVYSDVWGQGTLVTVSS
VL: DIQMTQSPSSLSASVGDRVTITCRASQGISSYLHWYQQKPGKAPKLLIYGASTLQSGVPSRFSGSGSGTDFTLTISSLQPEDFATYYCQQQNGYPFTFGQGTKVEIKR
B7: TP-3G3 Fab (Fab, V domains shown)
VH: QVQLVESGGGLVQPGGSLRLSCAASGFTFSSYSMSWVRQAPGKGLEWVSSISSSSSNTYYGDSVKGRFTISRDNSKNTLYLQMNSLRAEDTAVYYCARMHYKGMDIWGQGTLVTVSS
VL: DIQMTQSPSSLSASVGDRVTITCRASQNIHSHLNWYQQKPGKAPKLLIYDASSLQSGVPSRFSGSGSGTDFTLTISSLQPEDFAVYYCQQYYDYPLTFGQGTKVEIKR
B8: TP-3H2 Fab (Fab, V domains shown)
VH: QVQLVESGGGLVQPGGSLRLSCAASGFTFNSYYMSWVRQAPGKGLEWVSNISSSGSNTNYADSVKGRFTISRDNSKNTLYLQMNSLRAEDTAVYYCARVHYGFDFWGQGTLVTVSS
VL: DIELTQPPSVSVAPGQTARISCSGDKLGKYYAYWYQQKPGQAPVLVIYGDSKRPSGIPERFSGSNSGNTATLTISGTQAEDEADYYCSSAAFGSTVFGGGTKLTVLG
B9: TP-4A7 Fab (Fab, V domains shown)
VH: QVQLVESGGGLVQPGGSLRLSCAASGFTFRNYAMNWVRQAPGKGLEWVSVISGSSSYTYYADSVKGRFTISRDNSKNTLYLQMNSLRAEDTAVYYCARADLPYMVFDYWGQGTLVTVSS
VL: B3 VL with N26A, I27L, Y30K, Y31F, Y33H, N52E, S89A, T93G, G94L, L96Y
B10: TP-4A9 Fab (Fab, V domains shown)
VH: QVQLVESGGGLVQPGGSLRLSCAASGFTFSSYGMSWVRQAPGKGLEWVSLISGVSSSTYYADSVKGRFTISRDNSKNTLYLQMNSLRAEDTAVYYCARSYLGYFDVWGQGTLVTVSS
VL: B8 VL with K26A, Y33S, S51N, S88Q, A90Y, A91T, F92T, G93R, T95L

Target: lysozyme
Test: ELISA

binding, no binding:
B1, B2, B3, B4, B5, B6, B7, B8, B9, B10
